Article PMC10869442
No constants are given. Whether binding was seen depends on the method and setting. In cells and extracts the contact can be indirect. Some entries that bind do so weakly or less than the wild type. Where a sequence is shown, tags or fusion partners need not be part of it.

Molecular target: T1, RIPK-HA (A. thaliana) (UniProt Q9ZUF4)
T1 sequence: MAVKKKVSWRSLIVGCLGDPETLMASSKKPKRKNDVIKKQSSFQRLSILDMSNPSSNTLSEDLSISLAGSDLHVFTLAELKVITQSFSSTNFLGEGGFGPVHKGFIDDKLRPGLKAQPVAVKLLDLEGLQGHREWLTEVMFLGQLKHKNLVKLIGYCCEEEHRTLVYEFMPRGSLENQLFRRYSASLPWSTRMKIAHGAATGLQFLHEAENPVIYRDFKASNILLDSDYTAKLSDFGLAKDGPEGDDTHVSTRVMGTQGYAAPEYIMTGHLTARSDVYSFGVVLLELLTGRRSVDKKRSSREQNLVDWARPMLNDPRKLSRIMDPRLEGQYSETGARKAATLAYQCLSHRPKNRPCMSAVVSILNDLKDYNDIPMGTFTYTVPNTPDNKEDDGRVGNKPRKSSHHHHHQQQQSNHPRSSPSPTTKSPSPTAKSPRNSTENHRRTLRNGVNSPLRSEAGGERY
Experiment: co-IP; extracts of N. benthamiana leaves coexpressing HA-tagged RPM1, RIPK or RPS2 and GFP-fused RIN4/NOI proteins, 3 d after infiltration; anti-HA antibody on Dynabeads protein G, overnight at 4 °C; CoIP buffer 50 mM Tris HCl, 125 mM NaCl, 0.1% tween-20, 1 mM DTT, 10% glycerol, pH 7.4; anti-GFP blot

B1: RIN4 fused to GFP (protein, UniProt Q8GYN5 1-211)
chain: MARSNVPKFGNWEAEENVPYTAYFDKARKTRAPGSKIMNPNDPEYNSDSQSQAPPHPPSSRTKPEQVDTVRRSREHMRSREESELKQFGDAGGSSNEAANKRQGRASQNNSYDNKSPLHKNSYDGTGKSRPKPTNLRADESPEKVTVVPKFGDWDENNPSSADGYTHIFNKVREERSSGANVSGSSRTPTHQSSRNPNNTSSCCCFGFGGK
Q: How did the binding turn out when B1 was run?
A: The binding was “binds”.
